Assay results as given in publication PMC6351035.
Results are given in words; binding and its absence hold for the method and conditions named. In cells and extracts the contact can be indirect.

By UniProt entry, the sequences of proteins in these tests, tags left out. Residues count along the entry.
UniProt O95831, residues 103-613: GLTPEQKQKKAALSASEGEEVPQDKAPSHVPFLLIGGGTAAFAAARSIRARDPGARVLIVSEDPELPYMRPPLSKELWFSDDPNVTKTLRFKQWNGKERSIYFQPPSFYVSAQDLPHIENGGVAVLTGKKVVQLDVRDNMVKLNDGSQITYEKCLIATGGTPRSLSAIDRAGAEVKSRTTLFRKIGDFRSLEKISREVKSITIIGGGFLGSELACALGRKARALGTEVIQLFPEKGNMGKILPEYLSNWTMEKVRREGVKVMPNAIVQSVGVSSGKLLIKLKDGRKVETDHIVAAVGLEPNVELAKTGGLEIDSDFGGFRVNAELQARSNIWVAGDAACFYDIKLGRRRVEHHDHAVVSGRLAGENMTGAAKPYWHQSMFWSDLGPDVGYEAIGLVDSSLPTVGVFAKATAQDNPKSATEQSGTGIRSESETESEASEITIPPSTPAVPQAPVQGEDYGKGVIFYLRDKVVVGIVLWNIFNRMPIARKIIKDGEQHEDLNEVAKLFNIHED
UniProt P38647, residues 47-679: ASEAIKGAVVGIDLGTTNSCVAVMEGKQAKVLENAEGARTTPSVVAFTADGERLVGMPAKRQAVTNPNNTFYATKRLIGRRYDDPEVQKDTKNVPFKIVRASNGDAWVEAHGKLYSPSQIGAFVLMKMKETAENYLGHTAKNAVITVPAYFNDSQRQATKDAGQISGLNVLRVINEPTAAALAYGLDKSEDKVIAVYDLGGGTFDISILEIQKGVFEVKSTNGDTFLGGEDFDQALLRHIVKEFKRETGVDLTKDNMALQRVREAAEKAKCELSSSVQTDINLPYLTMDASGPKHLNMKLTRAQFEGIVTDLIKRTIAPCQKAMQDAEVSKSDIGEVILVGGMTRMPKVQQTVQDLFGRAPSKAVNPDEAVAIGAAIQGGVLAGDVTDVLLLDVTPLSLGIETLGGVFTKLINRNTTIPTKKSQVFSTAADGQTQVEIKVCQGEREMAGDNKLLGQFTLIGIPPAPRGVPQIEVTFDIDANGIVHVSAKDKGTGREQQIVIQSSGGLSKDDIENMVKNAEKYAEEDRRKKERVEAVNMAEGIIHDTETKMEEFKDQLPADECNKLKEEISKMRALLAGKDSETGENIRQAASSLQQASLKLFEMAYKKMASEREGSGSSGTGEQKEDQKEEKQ

Molecular target: processed AIF (apoAIF, amino acids 103 to 613) with N-terminal hexahistidine tag (UniProt O95831)
Assay: pull-down; His-tagged AIF fragments immobilized on magnetic beads, incubated with a fraction of solubilized OMM proteins containing mortalin; Western blot with anti-mortalin; only the target purified

mortalin, endogenous, in solubilized outer mitochondrial membrane proteins of mouse liver (from UniProt P38647 47-679)
binding: no binding
